Assay results taken from patent US8748458B2, “Scriptaid isosteres and their use in therapy” (Karus Therapeutics Limited, priority 2009, dated 2014).
At least one structure is not confirmed: it was looked up by name or label, or the drawing left a doubt.

Tested on: Total HDAC (HeLa Nuclear Extracts)
Assay: Total HDAC inhibition (HeLa nuclear extracts)
Type: biochemical

O=C(CCCCCCC(c1ccccn1)c1ccccn1)NO [Example 6]
IC50: 396 nM
